# Values of other authors, collected in patent publication US20060115895A1, “Fish disease models and uses thereof” (priority 2002, published 2006).
# At least one structure is not confirmed: it was looked up by name or label, or the drawing left a doubt.
# Test system: interleukin 11 transgene (tetracycline inducible system)
# Details: mice, cited from earlier work
structure (smiles),measurement,setting,value
C[C@H]1c2cccc(O)c2C(=O)C2=C(O)[C@]3(O)C(=O)C(C(N)=O)=C(O)[C@@H](N(C)C)[C@@H]3[C@@H](O)[C@@H]21 [doxycycline],IL-11 levels on doxycycline induction,"lungs, less than 50 pg/ml in absence of doxycycline",greater than 0.3 ng/ml
same,fall of IL-11 levels on removal of doxycycline from the drinking water,within 24 h,> 80%
